For experiment [1], the target named is FLAG-INTS13 Family 2 mutant p.S652L (HEK-293T stable line) (human) (UniProt Q9NVM9). The experiment in a line: affinity purification with mass spectrometry + co-IP.
In experiment [2] the target is T1, FLAG-dIntS13 wild type (Drosophila S2 stable line) (Drosophila) (UniProt Q9VEX5).
T1 sequence: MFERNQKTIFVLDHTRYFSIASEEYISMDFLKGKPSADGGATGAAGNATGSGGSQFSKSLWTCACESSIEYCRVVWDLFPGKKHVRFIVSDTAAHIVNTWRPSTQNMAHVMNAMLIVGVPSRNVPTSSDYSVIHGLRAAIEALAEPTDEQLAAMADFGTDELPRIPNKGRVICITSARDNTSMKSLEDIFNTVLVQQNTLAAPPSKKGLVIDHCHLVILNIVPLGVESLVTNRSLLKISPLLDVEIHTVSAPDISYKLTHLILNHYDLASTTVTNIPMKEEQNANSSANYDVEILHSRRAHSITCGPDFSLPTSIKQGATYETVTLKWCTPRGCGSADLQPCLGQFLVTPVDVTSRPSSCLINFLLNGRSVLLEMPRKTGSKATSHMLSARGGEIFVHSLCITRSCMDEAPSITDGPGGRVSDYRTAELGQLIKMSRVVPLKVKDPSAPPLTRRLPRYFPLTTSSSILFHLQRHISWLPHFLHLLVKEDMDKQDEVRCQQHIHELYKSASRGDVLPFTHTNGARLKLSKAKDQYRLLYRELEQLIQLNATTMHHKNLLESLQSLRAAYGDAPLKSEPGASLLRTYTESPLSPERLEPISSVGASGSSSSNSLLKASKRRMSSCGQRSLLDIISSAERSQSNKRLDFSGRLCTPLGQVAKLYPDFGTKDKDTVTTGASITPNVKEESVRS
The experiment is described as above.

Chains of the proteins cited; added tags and fusions are not shown. Lines headed by an entry give the natural chain unless they say otherwise; changes in a name come on top.
UniProt Q9NVM9: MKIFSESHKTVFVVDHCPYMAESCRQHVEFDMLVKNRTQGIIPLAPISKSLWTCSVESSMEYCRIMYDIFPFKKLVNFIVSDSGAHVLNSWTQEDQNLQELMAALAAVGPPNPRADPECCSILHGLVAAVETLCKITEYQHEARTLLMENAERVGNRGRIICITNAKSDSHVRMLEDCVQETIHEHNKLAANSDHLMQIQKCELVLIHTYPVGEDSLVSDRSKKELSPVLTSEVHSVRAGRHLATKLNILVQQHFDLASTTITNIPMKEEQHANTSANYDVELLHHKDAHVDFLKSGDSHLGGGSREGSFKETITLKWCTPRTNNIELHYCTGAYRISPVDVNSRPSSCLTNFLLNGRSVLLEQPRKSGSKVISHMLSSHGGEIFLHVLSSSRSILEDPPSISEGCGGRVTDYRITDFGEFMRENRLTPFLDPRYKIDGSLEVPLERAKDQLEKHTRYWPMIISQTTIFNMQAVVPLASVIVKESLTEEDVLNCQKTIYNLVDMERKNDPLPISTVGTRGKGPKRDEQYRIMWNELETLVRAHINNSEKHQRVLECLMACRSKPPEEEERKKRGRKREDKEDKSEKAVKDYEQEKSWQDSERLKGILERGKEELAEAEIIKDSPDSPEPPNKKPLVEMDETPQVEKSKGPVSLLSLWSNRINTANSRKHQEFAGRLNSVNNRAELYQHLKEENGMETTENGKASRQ
UniProt Q9NVR2: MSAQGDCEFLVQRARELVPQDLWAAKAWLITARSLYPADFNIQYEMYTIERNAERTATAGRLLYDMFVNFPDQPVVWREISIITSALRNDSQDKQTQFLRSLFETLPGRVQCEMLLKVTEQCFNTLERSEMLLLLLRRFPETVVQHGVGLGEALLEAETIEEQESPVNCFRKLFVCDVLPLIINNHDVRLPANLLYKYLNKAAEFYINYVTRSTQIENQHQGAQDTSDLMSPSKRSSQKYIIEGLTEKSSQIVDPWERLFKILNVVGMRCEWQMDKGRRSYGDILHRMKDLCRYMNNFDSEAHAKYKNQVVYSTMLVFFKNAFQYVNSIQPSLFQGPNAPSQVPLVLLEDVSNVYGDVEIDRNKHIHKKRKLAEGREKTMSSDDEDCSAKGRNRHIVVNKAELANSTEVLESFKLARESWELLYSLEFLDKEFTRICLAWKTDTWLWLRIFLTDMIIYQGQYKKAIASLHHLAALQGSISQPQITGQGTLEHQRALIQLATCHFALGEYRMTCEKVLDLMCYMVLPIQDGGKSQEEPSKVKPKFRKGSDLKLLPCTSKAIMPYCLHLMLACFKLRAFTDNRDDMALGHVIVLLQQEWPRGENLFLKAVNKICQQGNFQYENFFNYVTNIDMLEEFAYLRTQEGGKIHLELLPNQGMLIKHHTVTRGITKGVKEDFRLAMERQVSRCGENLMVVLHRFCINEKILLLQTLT

These are yes or no findings as the source states them, for the method shown. Binding seen in cells or lysates may run through a third protein. A yes stands for co-enrichment or nearness to the bait. Other partners may have been found. For part of these data: Sequences can lack the tags named with a protein.

In the case of “INTS10, endogenous in HEK-293T (from UniProt Q9NVR2 1-710)”, the binding entry in experiment [1] is “binds”.

B1: dIntS14, endogenous in Drosophila S2 cells (protein, UniProt Q9VPY0 1-587)
chain: MPTLIALDASLSMLRPVPGRNEHTYQSLATKGIQHLLDNLTAAGKLEHVALLSYSTTAELKVDFTRDYDQVRQAVKKVEPVDKACLMSMLKAVVSIMSPWGNQNILQVVVFTDCGLGFGNTSITGFLEAYAEKESEPEFGFLKTLANYNLNFICLGLHGDYYFTRGLAVYQQLLDKVSLKGQLFMTKPAKSSDAVEGNPNPNPNPSHKSELGRTTVFELIERLCEASYKSSEVTLKCGSYFRMEASVLLWPPTAPYEQKSHIFGREPTIRHTDQKIEVCGFLSLSDIGSPATLSRHWVLPKVEREKSGSSRRSGNLSAAAKPPKLNLDTSNPNYELEKLEADIKEFYAKDSKDTEESGDDDVTIVLKPGPQTEQQKENLCVLLHGALKMENMAALVRVGDKWYGFIYAFTDSKKKSNLMLNILPPGTNVIPWLGDLESLGFPEDLAPGETASFPVRADRRSYSQSSVVWIRQASLQSDVQKVLRHAKKMPDKTQHFYKELNRIRRAALALGFVELLEALAMLLEKECAHLSLNGASNDCTLQLQHAATELRKTSNRDMKSMIVPLQKVGASDAGSTAATAPAPAYMY
As to B1, the binding entry in experiment [2] was “binds”.

B2: dIntS10, endogenous in Drosophila S2 cells (protein, UniProt Q9VZM7 1-631)
chain: MPSQEENELYMVKEAQRLRKSDPCAAMAWIITAKTLYPNAFNLQYEAYLLERDAQNYEEAAKCFSAIATNFQNQHTELWQEINSLTNALRNENETTPEHEFYVKMYKHLTPEVQHNIFMHTINHSADNLERIYIYILMFNKFPKSAITQAPRLLEMLAEGMKTEPDLYQRILVEEVLPMIQNKPPELSPNLACRLYTSSLEFYLRQIMDESDTADAWKNIFKVLMICGQMMGWEPFLPFSKHVNQNVYWEKLVDILSGSPAGSSQVLFYATTLFIYSLHGYIRNCKLRIEDADVTHVLVEGFMEWSPEGDGSEVPSMEPPKFSLTTAISPELSKAFLHAAQCWQLLNTDQFQRDFSQLMLALPLAPWISRFLFDLAIYFGHRDEANKLMADMTTQSSLVQSLQILSLNLMQGSMTLQGFQCILKILSELPTTQGQLLENMSLKGHRHMVFLPLTRSALVQYCVGAIISRLSRKVFEPNVPDRLLGDILVLQQLNLLNDVLLTQQIFNLIKQRKSFNLRTLSTYIINIDLLEELSHIWNSQQEDNFELTSSPNSSGTPTATTVAGGSQSRRIGTRGADKGARDEFRAITRQQIARCNENVITLLANFINQEHLMLAQHIFGISQPVETIVIK
For the molecule B2, the binding result in experiment [2] is “binds”.

The values above are taken from doi:10.1101/2020.07.20.209130.
